The results in this text go back to PubChem BioAssay AID256 (DTP/NCI, 2004).

The subject of this test is CD2F1 mice, L1210 leukemia ip, survival T/C. The test is described as follows: NCI In Vivo Anticancer Drug Screen. Data for tumor model L1210 Leukemia (intraperitoneal) in CD2F1 (CDF1) mice. The note with it: higher T/C = longer survival. Put shortly: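 Activity against a transplanted murine tumor was judged by comparing the compound group with a vehicle group. The outcome in the treated animals was divided by that in the controls.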

Setting [1] is: T/C endpoint: mean survival time, dose: 200.0 mg/kg/injection, schedule: Q01DX009 (ip), vehicle: saline with Tween-80.
Where [2] appears, read: T/C endpoint: mean survival time, dose: 400.0 mg/kg/injection, schedule: Q04DX003 (ip), vehicle: saline with Tween-80.
Setting [3] is: T/C endpoint: mean survival time, dose: 200.0 mg/kg/injection, schedule: Q01DX009 (ip), vehicle: Klucel (hydroxypropylcellulose) (HPC).
Setting [4] is: T/C endpoint: mean survival time, dose: 400.0 mg/kg/injection, schedule: Q01DX009 (ip), vehicle: Klucel (hydroxypropylcellulose) (HPC).
[5] abbreviates: T/C endpoint: mean survival time, dose: 50.0 mg/kg/injection, schedule: Q01DX009 (ip), vehicle: saline with Tween-80.
[6] abbreviates: T/C endpoint: mean survival time, dose: 100.0 mg/kg/injection, schedule: Q01DX009 (ip), vehicle: saline with Tween-80.
[7] abbreviates: T/C endpoint: mean survival time, dose: 400.0 mg/kg/injection, schedule: Q01DX009 (ip), vehicle: saline with Tween-80.
[8] abbreviates: T/C endpoint: mean survival time, dose: 300.0 mg/kg/injection, schedule: Q01DX001 (ip), vehicle: saline.

The list is a part of this screen's results and no random one: it gathers tests that were run many times, whatever their T/C, doses with no T/C, and many T/C values between a quarter and a half above the control. Further doses and runs are listed elsewhere. T/C: endpoint of the treated group in % of that of the vehicle group. Some doses have a count of surviving animals in place of a T/C: the source files T/C as zero there, which appears to mark a toxic dose or a test without result, not a measured value. Some doses without a T/C left all or most animals alive at the check, yet need not have been tolerated: survival well below the control is almost never listed, so the zero probably covers shortened survival too. Survivors were counted at the toxicity check, usually on the fifth day, unless a day is given; later deaths do not show. Schedule codes are those of the source, read here as Q, the interval in days (D) or hours (H), X, the number of doses. For survival time, this PubChem deposit counts one and a half times the control or more as active, and values a quarter to a half above the control carry no call in these data; other NCI protocols may use other cut-offs. Some entries were tested several times; the values are given in rising order. Some T/C values carry the count of animals alive at the toxicity check (mostly the fifth day); where none is given, no animal had died by that day.

As to `O=c1cc(Nc2ccc(Br)cc2)[nH]c(=O)[nH]1`, for the setting “T/C endpoint: mean survival time, dose: 400.0 mg/kg/injection, schedule: Q01DX001 (ip), vehicle: other”, the survivor count is 1 of 6.
For `CO[C@H]1C[C@H](O[C@H]2CC[C@]3(C=O)[C@H]4CC[C@]5(C)[C@@H](C6=CC(=O)OC6)CC[C@]5(O)[C@@H]4CC[C@]3(O)C2)O[C@H](C)[C@H]1O[C@@H]1O[C@H](CO)[C@@H](O)[C@H](O)[C@H]1O`, where the note is “T/C endpoint: mean survival time, dose: 2.0 mg/kg/injection, schedule: Q01DX009 (ip), vehicle: saline”, the survivor count is recorded as 2 of 6.
Turning to `C=C(COC(C)(C)C)CN(C)C`, the survivor count under setting [1] is listed as 1 of 6.
Turning to `C=C(Cl)CSCCS`, the survivor count (T/C endpoint: mean survival time, dose: 200.0 mg/kg/injection, schedule: Q01DX009 (ip), vehicle: acetone) is given as 2 of 6.
On to `Nc1nc(NCCCc2ccccc2)cc(=O)[nH]1`, for which the survivor count runs as follows: (T/C endpoint: mean survival time, dose: 100.0 mg/kg/injection, schedule: Q04DX003 (ip), vehicle: saline with Tween-80) 0 of 6; (T/C endpoint: mean survival time, dose: 200.0 mg/kg/injection, schedule: Q04DX003 (ip), vehicle: saline with Tween-80) 0 of 6; under setting [2], 0 of 6.
Turning to `COC1C(CO)OC(n2cnc3c(=S)nc(N)[nH]c32)C1O` (stereo unspecified), the T/C reads like this: (T/C endpoint: mean survival time, dose: 100.0 mg/kg/injection, schedule: Q01DX009 (ip), vehicle: Klucel (hydroxypropylcellulose) (HPC)) 149 % of control; under setting [3], 131 and 137 % of control; under setting [4], 131 % of control.
In the case of `CCNC(=S)NN`, the survivor count is 0 of 3 (T/C endpoint: mean survival time, dose: 25.0 mg/kg/injection, schedule: Q01DX009 (ip), vehicle: saline with Tween-80); 1 of 3 under setting [5]; 0 of 3 under setting [6]; 0 of 3 under setting [1].
In the case of `C[Si](C)c1cccc(Cl)c1`, under setting [7], the survivor count is listed as 0 of 6.
As to `CSc1ccccc1C1=CCCCCC1`, the survivor count (T/C endpoint: mean survival time, dose: 400.0 mg/kg/injection, schedule: Q01DX001 (ip), vehicle: saline with Tween-80) was 5 of 6.
`O=C1CC=C2C3CC4N(CCC45c4cc(O)c(O)cc4N1C25)C/C3=C\CBr` (stereo unspecified): the survivor count (T/C endpoint: mean survival time, dose: 150.0 mg/kg/injection, schedule: Q01DX001 (ip), vehicle: saline) is 2 of 6 and the survivor count under setting [8] is given as 1 of 6.
`CN(C)c1ccc(/C=N/NC(=O)c2ccccc2N)c(Cl)c1`: the survivor count under setting [7] is 6 of 6.
With `OC1CCCC2CCC[N-]C12.OC1CCCC2CCC[N-]C12.[Mn+2]` (stereo unspecified), the survivor count under setting [3] is on record as 3 of 6 and the survivor count under setting [4] was 2 of 6.
Regarding `O=NN1CCOC1=NC1CCCCC1`, for the setting “T/C endpoint: mean survival time, dose: 800.0 mg/kg/injection, schedule: Q01DX001 (ip), vehicle: distilled water + Tween-80”, the survivor count is reported as 0 of 6.
On to `c1ccc2cc(N=NNc3ccc4ccccc4c3)ccc2c1`, for which, under setting [2], the survivor count was 4 of 6.
For `OCCCl`, under setting [8], the survivor count is 1 of 6.
In the case of `c1ccc(CN(c2ccccc2)C2CCCCC2)cc1`, the survivor count (T/C endpoint: mean survival time, dose: 400.0 mg/kg/injection, schedule: Q04DX003 (ip), vehicle: Klucel (hydroxypropylcellulose) (HPC)) was 3 of 3.
For `CCC1CCCCN1C(=S)N/N=C(\C)c1ccccn1` (stereo unspecified), the survivor count is, setting by setting: (T/C endpoint: median survival time, dose: 50.0 mg/kg/injection, schedule: Q01DX009 (ip), vehicle: saline with Tween-80) 1 of 6; (T/C endpoint: median survival time, dose: 100.0 mg/kg/injection, schedule: Q01DX009 (ip), vehicle: saline with Tween-80) 0 of 6.
For the compound `CC(=O)OC1C(NC(=O)N(CCCl)N=O)C(OC(C)=O)C(OC(C)=O)C(NC(=O)N(CCCl)N=O)C1OC(C)=O` (stereo unspecified), the T/C (T/C endpoint: mean survival time, dose: 30.0 mg/kg/injection, schedule: Q01DX001 (ip), vehicle: saline with Tween-80) was 141 % of control and the T/C (T/C endpoint: mean survival time, dose: 40.0 mg/kg/injection, schedule: Q01DX001 (ip), vehicle: saline with Tween-80) was 137 % of control.
Regarding `Cn1ccc(=Nc2ccc(NC(=O)c3ccc(N=c4ccn(C)c5ccc([N+](=O)[O-])cc45)cc3[N+](=O)[O-])cc2)cc1`, the T/C is, setting by setting: under setting [5], 127 % of control; under setting [6], 125 % of control; under setting [1], 145 [4 of 5 alive] and 147 % of control; under setting [7], 139 % of control.
On to `CC(C)c1ccc2c(c1)CC[C@H]1[C@](C)(C#N)CCC[C@]21C`, for which the survivor count under setting [7] is 5 of 6.
Take `N#C/C(=C\C1CCCCC1Cl)C1CCC([N+](=O)[O-])CC1` (stereo unspecified): where the note is “T/C endpoint: mean survival time, dose: 200.0 mg/kg/injection, schedule: Q04DX002 (ip), vehicle: saline with Tween-80”, the survivor count was 3 of 3.
As for `C1=CCOCOC1`, the survivor count runs as follows: under setting [1], 2 of 6; under setting [7], 0 of 6; under setting [2], 1 of 6.
In the case of `CN(C(=O)N(CCCl)N=O)C1CCCCC1`, the T/C (T/C endpoint: mean survival time, dose: 120.0 mg/kg/injection, schedule: Q01DX001 (ip), vehicle: saline with Tween-80) was 135 % of control.
Consider `C[n+]1ccc2ccccc2c1SC1CCC2CC3CC2C1C3` (stereo unspecified), for which, for the setting “T/C endpoint: mean survival time, dose: 40.0 mg/kg/injection, schedule: Q01DX009 (iv), vehicle: methylcellulose (MC)”, the survivor count is 3 of 6.
For `CC(=O)OC1CCC2(C)C(CCC3(C)C2CCC2C4C5OC(=O)C4(CCC5(C)C)CCC23C)C1(C)C` (stereo unspecified), for the setting “T/C endpoint: mean survival time, dose: 25.0 mg/kg/injection, schedule: Q04DX002 (ip), vehicle: saline with Tween-80”, the survivor count is 3 of 3.
For `CC(c1ccccc1)N1CCCOP1(=O)N(CCCl)CCCl` (stereo unspecified), the survivor count (T/C endpoint: mean survival time, dose: 500.0 mg/kg/injection, schedule: Q01DX001 (ip), vehicle: other) was 2 of 6.
As to `C=CC[As](=O)(O)CCC`, the survivor count is reported as 0 of 6 under setting [1] and 0 of 6 under setting [7].
Regarding `C=C1C(=O)OC2/C=C(\C)CC/C=C(/C)CC(OC(=O)/C(=C/CO)CO)C12` (stereo unspecified), the survivor count (T/C endpoint: mean survival time, dose: 80.0 mg/kg/injection, schedule: Q01DX009 (ip), vehicle: Klucel (hydroxypropylcellulose) (HPC)) is 3 of 6.
With `O=S(=O)(N=N/C=C1\C=CC=CN1O)c1cccs1`, the survivor count under setting [7] is listed as 3 of 6.
